The list shows a part of the results. Small differences around the control level are noise.

By UniProt entry, the sequences of proteins in these tests, tags left out. Where a name states a change or a piece, a line headed by the entry shows the natural chain unless it says otherwise.
UniProt Q8TDJ6, whole entry: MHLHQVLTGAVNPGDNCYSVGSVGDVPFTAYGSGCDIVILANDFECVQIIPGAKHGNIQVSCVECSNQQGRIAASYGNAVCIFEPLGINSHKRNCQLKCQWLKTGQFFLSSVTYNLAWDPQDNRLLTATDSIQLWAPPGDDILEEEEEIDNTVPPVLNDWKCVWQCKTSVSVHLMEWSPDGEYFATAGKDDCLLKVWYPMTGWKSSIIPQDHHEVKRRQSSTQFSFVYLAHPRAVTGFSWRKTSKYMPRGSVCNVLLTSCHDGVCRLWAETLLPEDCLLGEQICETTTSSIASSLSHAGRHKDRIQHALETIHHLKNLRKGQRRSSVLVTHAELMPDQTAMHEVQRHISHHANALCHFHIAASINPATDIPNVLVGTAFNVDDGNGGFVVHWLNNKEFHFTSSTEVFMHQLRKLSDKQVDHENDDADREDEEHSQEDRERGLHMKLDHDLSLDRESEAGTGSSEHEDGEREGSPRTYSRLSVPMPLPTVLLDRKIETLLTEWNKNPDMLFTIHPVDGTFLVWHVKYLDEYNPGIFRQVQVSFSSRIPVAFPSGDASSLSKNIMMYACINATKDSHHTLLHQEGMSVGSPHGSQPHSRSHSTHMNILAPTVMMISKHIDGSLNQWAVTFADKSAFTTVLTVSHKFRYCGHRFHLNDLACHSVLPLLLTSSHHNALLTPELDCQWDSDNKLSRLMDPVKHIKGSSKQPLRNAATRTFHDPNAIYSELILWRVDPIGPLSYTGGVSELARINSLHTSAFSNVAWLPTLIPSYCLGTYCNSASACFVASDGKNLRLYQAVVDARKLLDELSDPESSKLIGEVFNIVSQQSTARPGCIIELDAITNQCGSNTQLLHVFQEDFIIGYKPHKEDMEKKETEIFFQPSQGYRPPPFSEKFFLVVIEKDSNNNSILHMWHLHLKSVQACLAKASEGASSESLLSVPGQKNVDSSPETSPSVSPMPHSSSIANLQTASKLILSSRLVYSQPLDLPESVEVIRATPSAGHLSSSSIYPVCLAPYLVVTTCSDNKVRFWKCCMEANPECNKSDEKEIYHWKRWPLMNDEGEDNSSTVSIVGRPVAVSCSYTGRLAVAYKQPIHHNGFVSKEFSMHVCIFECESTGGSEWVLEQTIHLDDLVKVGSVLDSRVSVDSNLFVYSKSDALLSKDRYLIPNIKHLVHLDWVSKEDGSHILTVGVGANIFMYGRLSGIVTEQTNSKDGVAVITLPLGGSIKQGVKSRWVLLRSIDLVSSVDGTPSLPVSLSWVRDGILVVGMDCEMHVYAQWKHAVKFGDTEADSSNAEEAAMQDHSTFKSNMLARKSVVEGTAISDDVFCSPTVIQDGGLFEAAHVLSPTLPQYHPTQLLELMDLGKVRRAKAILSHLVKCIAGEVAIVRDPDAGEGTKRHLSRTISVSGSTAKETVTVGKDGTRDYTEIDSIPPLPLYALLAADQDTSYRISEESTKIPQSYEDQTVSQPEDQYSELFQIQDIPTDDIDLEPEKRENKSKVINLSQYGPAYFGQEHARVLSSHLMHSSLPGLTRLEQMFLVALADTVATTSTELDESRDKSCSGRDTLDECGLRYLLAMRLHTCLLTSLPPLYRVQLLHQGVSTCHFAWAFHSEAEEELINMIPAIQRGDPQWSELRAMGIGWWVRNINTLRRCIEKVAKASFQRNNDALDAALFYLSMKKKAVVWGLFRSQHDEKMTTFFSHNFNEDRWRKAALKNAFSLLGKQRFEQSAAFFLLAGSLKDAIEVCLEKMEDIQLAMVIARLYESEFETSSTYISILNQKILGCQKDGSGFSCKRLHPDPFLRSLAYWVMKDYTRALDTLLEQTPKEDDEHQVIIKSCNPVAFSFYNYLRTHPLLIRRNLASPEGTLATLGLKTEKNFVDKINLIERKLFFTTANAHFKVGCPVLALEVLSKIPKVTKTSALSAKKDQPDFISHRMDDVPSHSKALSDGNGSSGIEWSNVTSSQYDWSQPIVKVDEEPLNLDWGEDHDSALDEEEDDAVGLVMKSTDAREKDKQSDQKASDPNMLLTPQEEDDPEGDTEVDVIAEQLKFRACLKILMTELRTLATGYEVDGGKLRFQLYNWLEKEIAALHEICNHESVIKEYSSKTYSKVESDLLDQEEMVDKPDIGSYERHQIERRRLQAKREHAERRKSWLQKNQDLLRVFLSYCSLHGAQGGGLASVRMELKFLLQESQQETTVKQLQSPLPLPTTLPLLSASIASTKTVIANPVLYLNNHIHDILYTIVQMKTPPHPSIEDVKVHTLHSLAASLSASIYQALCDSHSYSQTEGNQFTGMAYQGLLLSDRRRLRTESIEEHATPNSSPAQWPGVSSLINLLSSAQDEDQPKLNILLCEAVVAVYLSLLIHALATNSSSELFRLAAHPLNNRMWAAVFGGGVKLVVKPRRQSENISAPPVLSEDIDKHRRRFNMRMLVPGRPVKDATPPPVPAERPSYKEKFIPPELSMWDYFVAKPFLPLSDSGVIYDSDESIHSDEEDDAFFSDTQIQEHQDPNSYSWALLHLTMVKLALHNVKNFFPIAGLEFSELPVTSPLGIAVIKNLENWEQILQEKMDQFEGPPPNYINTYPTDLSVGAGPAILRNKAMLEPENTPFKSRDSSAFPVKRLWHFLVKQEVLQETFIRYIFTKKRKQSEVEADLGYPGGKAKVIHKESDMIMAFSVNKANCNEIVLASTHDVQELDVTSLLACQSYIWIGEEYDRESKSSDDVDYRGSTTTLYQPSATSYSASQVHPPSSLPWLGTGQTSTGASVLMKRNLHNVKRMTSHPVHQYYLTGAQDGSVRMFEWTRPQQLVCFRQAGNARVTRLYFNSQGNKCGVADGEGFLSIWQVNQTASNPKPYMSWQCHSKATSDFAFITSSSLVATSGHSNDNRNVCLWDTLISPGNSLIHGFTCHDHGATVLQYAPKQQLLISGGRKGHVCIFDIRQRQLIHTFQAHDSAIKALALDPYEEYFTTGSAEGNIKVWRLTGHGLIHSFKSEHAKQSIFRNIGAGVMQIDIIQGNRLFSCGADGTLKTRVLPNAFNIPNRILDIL
UniProt Q8WTS6: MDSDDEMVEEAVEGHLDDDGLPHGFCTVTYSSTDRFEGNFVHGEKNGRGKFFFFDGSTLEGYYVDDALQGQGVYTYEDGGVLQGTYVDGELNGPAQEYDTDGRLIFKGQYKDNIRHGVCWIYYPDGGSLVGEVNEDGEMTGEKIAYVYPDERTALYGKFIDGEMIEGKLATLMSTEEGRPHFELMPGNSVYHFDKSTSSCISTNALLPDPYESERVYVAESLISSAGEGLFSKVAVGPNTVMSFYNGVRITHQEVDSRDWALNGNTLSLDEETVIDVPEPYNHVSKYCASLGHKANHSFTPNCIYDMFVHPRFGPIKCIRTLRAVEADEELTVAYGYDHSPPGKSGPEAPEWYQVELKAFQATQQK
UniProt Q8TE49: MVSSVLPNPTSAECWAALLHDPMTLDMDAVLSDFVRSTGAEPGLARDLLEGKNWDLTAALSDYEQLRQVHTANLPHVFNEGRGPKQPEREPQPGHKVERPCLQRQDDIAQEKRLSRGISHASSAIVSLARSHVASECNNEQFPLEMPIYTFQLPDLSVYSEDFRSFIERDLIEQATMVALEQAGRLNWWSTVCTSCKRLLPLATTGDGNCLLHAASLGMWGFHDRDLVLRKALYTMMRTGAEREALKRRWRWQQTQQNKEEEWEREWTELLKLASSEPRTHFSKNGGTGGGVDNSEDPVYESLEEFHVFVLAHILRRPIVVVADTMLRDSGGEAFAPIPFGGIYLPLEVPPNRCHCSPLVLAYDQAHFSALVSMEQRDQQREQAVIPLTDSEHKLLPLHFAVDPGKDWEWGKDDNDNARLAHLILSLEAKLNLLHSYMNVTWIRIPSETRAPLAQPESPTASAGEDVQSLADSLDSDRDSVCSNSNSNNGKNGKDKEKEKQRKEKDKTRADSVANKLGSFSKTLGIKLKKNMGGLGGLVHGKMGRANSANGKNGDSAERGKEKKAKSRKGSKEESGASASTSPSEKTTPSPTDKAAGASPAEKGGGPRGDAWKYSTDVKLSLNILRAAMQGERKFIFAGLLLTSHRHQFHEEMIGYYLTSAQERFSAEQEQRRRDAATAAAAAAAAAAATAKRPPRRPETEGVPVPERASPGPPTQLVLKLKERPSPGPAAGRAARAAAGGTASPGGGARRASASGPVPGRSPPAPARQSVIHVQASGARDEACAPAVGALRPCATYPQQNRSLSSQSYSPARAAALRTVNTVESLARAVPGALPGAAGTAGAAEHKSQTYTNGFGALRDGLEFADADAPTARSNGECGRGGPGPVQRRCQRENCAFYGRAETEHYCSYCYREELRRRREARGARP
UniProt Q8WWL2: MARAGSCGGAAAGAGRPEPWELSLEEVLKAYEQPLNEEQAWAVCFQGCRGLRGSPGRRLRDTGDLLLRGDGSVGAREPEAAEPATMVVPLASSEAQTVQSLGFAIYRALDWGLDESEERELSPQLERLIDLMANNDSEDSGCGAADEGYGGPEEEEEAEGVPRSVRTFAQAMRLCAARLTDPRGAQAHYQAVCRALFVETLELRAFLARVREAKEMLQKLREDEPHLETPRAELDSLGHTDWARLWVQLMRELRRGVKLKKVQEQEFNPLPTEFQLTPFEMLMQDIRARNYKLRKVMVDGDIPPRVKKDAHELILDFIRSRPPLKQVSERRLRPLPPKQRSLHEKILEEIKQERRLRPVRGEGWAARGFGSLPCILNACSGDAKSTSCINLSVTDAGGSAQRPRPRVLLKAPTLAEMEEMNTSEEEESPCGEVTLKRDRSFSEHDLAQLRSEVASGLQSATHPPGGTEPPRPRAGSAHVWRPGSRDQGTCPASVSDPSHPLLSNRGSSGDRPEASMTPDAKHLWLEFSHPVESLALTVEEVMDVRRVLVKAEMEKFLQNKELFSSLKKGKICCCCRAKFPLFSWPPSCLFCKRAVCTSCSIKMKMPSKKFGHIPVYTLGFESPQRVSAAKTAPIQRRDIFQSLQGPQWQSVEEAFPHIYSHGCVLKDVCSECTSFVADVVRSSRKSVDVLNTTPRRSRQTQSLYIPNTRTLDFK
UniProt Q8WUX2: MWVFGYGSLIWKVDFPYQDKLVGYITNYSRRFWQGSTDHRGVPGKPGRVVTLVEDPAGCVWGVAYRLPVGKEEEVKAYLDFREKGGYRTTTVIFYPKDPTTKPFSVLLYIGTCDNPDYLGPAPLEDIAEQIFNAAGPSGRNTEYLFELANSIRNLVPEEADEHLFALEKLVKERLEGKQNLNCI
UniProt Q8WUX1, whole entry: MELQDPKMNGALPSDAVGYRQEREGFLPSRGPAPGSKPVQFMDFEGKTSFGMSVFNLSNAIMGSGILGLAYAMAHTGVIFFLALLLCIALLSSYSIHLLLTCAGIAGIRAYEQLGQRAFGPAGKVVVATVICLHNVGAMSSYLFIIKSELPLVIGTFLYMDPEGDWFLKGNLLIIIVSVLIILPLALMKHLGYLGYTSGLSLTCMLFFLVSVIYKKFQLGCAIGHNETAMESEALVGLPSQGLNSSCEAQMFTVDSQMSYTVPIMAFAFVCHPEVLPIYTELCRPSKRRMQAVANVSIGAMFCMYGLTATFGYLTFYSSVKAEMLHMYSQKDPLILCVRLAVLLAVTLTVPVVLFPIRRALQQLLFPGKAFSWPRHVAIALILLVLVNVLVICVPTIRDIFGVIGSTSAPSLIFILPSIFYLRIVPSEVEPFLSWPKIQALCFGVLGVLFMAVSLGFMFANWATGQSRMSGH
UniProt Q92499: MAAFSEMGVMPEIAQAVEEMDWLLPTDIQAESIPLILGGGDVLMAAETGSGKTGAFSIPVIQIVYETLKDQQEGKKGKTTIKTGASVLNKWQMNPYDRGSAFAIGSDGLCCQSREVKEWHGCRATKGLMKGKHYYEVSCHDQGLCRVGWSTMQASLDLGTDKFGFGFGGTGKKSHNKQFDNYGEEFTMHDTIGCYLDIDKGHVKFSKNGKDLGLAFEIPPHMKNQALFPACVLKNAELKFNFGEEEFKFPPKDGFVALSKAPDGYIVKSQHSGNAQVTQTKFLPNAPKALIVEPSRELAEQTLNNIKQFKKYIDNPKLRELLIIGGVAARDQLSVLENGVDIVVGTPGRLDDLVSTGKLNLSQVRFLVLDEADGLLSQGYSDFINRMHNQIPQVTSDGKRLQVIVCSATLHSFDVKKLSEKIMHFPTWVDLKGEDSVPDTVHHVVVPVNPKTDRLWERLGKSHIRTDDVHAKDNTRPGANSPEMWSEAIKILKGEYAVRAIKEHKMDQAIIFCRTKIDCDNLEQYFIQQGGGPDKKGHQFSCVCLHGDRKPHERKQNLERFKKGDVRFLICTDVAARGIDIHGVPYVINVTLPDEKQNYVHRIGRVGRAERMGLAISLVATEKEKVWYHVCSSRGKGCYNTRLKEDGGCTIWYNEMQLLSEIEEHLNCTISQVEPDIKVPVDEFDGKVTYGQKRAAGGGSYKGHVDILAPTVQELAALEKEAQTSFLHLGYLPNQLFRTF

The values below come from the supplement of paper PMC12819154, “High-throughput peptide-centric local stability assay extends protein–ligand identification to membrane proteins, tissues and bacteria” (Nature Structural & Molecular Biology, 2025).

Compound in this assay: Cc1nc(Nc2ncc(C(=O)Nc3c(C)cccc3Cl)s2)cc(N2CCN(CCO)CC2)n1 [dasatinib]
Put plainly: log2 fold change of tryptic peptide abundance, ligand vs vehicle (limited proteolysis) (log2 ratio); higher = more trypsin-susceptible (destabilized). The settings on record: ligand concentration: 5 uM; sample: K562 cleared lysate.
As to “ZNF507 (peptide sequence: ERTDQNASDDDILK, peptide start residue: 596) (UniProt Q8TCN5)”, the log2 fold change is -0.681.

On to “DMXL2 (peptide sequence: EIAALHEICNHESVIK, peptide start residue: 2080) (UniProt Q8TDJ6)”, for which the log2 fold change is -0.49.

For “SETD7 (peptide sequence: AFQATQQK, peptide start residue: 359) (UniProt Q8WTS6)”, the log2 fold change is -0.0209.

With “UniProt Q8TB05 (peptide sequence: AHPAMEAER, peptide start residue: 169)”, the log2 fold change was -0.0358.

Turning to “UniProt Q8TE49 (peptide sequence: RPIVVVADTMLR, peptide start residue: 308)”, the log2 fold change stood at 0.0157.

Take “SPIRE2 (peptide sequence: AELDSLGHTDWAR, peptide start residue: 232) (UniProt Q8WWL2)”: the log2 fold change was -0.395.

On to “CHAC2 (peptide sequence: RFWQGSTDHR, peptide start residue: 31) (UniProt Q8WUX2)”, for which the log2 fold change worked out at 0.32.

On to “SLC38A5 (peptide sequence: MNGALPSDAVGYRQER, peptide start residue: 8) (UniProt Q8WUX1)”, for which the log2 fold change was -0.0573.

For the target “DDX1 (peptide sequence: ELAEQTLNNIK, peptide start residue: 297) (UniProt Q92499)”, the log2 fold change is -0.194.

For the target “PTCD2 (peptide sequence: SHTLLLNK, peptide start residue: 363) (UniProt Q8WV60)”, the log2 fold change was determined as 0.398.

Turning to “UniProt Q92616 (peptide sequence: VKPPKYLLDSCAPLLR, peptide start residue: 236)”, the log2 fold change is -0.514.
